From PMC11408250
These are yes or no findings as the source states them, for the method shown. Binding seen in cells or lysates may run through a third protein. A yes stands for co-enrichment or nearness to the bait. Other partners may have been found. Sequences can lack the tags named with a protein.

The chains behind the UniProt entries cited, without tags or fusion partners. Residues count along the entry.
UniProt Q8BJH1: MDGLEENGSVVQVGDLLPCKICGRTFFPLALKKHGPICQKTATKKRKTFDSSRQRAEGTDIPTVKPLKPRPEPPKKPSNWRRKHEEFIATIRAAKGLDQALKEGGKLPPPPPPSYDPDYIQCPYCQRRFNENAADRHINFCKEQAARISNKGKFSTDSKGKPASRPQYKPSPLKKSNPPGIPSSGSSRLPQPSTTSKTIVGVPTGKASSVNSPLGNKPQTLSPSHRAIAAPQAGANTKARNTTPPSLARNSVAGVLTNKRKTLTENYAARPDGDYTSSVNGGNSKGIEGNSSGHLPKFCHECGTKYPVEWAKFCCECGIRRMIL
UniProt Q62261: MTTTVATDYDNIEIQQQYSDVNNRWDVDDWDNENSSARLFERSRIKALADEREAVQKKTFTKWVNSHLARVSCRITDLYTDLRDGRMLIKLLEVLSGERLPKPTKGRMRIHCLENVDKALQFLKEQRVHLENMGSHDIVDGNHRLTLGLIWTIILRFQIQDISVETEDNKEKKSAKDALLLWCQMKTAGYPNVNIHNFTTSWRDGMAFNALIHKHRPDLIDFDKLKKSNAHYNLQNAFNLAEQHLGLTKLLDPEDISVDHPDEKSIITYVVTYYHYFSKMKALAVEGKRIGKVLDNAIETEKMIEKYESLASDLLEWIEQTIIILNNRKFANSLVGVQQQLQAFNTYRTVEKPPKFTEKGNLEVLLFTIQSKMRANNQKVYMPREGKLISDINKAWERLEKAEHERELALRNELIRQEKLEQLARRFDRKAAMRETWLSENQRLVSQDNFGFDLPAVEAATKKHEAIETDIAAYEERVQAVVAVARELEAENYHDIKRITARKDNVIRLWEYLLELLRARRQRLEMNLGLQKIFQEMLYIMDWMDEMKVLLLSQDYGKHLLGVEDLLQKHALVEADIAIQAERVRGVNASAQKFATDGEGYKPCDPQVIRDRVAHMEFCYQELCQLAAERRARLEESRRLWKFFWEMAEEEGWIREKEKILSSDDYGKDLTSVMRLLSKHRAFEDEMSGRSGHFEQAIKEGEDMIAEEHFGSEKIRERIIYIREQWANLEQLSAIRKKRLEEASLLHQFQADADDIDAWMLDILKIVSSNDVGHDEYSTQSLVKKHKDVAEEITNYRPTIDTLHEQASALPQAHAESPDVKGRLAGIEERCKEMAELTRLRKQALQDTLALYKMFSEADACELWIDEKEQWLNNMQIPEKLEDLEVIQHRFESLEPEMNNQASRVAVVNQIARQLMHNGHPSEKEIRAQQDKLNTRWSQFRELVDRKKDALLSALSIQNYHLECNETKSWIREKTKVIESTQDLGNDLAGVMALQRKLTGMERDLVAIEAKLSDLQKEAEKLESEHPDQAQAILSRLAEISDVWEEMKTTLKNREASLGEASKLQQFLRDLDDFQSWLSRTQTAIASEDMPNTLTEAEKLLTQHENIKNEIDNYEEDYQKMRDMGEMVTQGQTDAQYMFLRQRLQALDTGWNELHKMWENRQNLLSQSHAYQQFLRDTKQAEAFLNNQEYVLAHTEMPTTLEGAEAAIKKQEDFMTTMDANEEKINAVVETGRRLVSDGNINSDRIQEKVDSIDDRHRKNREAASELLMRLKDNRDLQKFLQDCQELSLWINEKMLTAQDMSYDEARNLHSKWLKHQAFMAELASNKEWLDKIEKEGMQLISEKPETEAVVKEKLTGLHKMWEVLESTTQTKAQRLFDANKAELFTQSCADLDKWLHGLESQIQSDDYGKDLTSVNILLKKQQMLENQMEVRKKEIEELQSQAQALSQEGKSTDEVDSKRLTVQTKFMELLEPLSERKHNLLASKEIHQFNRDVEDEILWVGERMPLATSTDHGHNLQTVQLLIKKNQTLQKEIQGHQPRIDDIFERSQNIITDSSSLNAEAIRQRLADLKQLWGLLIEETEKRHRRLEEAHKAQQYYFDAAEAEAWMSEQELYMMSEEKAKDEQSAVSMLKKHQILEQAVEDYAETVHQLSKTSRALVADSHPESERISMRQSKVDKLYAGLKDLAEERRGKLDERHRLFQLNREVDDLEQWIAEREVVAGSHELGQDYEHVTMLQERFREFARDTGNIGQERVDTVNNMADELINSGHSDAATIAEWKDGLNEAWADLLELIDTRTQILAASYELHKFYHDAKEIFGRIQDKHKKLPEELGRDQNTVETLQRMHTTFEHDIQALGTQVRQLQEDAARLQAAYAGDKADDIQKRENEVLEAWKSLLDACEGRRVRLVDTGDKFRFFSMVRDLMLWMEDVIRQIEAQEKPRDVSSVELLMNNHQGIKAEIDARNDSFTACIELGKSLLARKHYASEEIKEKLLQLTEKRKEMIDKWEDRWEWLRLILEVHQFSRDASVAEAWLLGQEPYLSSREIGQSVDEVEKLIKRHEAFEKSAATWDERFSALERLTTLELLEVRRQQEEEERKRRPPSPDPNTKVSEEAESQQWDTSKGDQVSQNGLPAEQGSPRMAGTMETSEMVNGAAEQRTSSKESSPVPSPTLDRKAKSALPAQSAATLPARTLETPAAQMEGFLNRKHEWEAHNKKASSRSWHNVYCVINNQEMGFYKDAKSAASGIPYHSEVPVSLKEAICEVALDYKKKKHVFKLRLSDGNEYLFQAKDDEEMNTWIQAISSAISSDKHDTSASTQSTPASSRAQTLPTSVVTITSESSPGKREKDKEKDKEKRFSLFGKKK
UniProt Q99KW3: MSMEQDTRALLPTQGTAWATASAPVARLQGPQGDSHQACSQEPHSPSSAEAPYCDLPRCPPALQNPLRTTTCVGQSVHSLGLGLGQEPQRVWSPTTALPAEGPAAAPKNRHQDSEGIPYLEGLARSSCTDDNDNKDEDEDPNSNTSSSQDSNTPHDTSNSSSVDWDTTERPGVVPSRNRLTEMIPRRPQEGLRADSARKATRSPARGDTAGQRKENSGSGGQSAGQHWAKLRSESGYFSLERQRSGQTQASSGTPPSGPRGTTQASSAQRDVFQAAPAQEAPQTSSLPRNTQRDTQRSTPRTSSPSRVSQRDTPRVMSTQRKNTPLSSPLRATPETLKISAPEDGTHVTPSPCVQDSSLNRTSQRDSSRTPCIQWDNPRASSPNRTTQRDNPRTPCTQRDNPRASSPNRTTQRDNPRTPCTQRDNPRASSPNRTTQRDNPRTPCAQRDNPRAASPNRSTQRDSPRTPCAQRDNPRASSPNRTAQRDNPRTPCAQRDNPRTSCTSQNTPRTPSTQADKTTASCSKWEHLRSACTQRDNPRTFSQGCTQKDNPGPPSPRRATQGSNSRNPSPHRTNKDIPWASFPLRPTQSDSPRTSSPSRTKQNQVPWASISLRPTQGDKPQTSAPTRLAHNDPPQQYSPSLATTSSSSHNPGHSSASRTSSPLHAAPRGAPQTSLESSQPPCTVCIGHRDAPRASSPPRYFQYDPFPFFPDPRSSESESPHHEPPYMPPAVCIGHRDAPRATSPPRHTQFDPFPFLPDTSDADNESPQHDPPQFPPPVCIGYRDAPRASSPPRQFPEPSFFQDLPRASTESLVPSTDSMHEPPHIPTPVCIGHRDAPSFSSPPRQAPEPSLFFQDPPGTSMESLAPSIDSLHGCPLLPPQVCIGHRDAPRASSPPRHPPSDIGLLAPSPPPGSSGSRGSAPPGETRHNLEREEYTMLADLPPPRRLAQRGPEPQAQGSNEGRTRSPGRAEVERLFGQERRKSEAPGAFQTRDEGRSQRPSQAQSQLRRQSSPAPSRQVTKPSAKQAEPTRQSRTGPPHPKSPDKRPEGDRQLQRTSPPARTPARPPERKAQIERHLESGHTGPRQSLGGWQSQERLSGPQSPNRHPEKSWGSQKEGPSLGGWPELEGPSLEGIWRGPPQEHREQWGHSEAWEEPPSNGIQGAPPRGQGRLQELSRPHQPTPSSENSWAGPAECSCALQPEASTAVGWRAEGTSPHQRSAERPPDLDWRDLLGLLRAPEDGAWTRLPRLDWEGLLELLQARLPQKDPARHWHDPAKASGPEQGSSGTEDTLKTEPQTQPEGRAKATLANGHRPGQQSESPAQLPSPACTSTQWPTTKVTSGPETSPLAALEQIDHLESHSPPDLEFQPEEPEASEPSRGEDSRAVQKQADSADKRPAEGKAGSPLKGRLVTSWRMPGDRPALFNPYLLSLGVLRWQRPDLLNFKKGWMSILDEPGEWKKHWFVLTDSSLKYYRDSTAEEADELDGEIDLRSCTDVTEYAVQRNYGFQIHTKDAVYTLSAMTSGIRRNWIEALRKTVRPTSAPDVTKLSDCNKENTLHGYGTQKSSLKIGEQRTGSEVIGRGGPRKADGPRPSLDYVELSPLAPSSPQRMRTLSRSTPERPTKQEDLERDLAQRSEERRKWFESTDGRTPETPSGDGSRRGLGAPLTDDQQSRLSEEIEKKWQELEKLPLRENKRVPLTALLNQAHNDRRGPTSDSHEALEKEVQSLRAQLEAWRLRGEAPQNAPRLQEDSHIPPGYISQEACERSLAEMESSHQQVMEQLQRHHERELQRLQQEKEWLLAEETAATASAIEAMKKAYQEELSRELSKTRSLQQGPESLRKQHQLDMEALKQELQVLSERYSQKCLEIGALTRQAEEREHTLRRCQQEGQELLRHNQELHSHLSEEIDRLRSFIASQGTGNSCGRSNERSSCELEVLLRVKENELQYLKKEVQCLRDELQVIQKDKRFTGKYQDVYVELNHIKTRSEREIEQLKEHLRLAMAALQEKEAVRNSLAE
UniProt Q03265, residues 44-553: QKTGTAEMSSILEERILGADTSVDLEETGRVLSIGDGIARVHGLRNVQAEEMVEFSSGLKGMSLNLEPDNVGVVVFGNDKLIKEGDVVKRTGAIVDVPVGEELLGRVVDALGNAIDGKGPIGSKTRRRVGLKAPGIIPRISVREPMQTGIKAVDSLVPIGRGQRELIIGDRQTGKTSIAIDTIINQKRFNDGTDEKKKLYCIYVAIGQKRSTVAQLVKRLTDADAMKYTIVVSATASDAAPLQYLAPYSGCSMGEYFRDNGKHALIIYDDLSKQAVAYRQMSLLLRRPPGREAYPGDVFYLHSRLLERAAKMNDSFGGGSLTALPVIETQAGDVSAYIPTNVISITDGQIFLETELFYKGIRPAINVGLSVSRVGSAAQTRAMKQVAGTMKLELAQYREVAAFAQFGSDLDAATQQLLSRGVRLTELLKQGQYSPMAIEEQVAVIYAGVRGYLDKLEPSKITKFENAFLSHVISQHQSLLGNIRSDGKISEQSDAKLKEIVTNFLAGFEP
UniProt Q62188: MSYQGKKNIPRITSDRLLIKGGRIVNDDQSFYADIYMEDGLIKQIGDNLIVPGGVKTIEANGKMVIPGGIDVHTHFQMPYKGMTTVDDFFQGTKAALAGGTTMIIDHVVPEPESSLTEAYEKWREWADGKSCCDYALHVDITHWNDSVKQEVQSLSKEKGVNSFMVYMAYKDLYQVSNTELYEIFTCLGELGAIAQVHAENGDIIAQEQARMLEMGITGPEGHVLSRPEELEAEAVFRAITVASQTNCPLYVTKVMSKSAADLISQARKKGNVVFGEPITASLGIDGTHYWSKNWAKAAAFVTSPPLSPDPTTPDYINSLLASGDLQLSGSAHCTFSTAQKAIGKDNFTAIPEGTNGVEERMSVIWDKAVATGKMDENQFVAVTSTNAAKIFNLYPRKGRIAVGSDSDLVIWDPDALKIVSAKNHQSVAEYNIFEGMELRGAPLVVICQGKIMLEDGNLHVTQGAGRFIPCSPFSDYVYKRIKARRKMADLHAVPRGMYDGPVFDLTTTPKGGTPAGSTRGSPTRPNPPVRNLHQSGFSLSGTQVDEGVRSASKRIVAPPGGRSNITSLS
UniProt Q9ERG0: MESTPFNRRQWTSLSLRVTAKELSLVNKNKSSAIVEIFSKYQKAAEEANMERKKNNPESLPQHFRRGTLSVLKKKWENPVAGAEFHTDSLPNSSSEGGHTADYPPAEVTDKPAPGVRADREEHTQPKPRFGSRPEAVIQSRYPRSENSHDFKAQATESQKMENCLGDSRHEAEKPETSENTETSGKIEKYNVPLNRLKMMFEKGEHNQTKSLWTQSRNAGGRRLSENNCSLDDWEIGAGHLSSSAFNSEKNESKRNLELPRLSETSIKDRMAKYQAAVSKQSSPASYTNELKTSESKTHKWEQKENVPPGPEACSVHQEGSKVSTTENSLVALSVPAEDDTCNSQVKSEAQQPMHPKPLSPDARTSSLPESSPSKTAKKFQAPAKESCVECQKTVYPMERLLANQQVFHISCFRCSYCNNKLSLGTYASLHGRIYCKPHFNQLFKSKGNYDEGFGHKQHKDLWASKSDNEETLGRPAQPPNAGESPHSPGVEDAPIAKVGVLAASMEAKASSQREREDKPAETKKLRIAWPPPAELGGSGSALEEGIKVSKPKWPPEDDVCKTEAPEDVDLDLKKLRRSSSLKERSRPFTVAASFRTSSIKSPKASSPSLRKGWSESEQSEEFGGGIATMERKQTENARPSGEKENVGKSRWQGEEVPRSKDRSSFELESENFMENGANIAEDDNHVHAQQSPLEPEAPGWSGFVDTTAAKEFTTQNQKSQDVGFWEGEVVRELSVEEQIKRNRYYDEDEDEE

Experiments:
[1] = target: T1, PCDH19-HA-FLAG (Protocadherin 19, endogenous in Pcdh19-HA-FLAG mice) (mouse (endogenous in mouse brain)) (UniProt Q80TF3); assay: affinity purification with mass spectrometry; Experiment 2, postnatal: PCDH19-HA-FLAG precipitated with anti-FLAG M2 affinity gel from P6-7 mouse cortex and hippocampus lysate, control mouse IgG affinity gel; IP Buffer, overnight 4 °C; LC-MS/MS
T1 sequence: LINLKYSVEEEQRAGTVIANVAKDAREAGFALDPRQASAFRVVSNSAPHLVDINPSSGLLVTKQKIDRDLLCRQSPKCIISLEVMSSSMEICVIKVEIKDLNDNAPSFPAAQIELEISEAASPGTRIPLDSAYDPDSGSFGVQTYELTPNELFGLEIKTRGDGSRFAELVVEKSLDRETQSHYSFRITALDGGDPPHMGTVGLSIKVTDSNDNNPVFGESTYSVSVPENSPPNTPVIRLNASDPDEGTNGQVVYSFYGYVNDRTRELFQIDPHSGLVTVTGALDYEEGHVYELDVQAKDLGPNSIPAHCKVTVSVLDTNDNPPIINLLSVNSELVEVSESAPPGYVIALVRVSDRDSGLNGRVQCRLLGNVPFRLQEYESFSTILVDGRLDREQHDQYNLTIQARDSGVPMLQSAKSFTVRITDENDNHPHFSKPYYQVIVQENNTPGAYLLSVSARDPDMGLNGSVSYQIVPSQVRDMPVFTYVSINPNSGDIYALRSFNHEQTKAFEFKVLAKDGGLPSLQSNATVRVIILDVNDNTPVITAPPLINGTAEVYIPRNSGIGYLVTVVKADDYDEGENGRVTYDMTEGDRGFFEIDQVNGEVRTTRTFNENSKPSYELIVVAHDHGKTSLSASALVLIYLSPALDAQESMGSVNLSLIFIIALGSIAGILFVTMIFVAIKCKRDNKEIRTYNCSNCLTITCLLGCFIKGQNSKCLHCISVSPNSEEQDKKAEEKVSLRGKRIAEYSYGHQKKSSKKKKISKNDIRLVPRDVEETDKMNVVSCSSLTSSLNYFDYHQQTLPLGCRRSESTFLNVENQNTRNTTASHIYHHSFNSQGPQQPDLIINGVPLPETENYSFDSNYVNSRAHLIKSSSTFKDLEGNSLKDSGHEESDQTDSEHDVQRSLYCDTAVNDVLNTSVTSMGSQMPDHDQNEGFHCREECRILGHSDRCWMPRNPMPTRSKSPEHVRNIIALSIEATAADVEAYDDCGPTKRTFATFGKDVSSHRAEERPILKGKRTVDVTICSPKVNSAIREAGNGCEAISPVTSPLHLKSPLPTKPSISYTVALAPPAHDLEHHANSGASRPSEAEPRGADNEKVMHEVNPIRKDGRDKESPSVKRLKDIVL

[2] = target: T1, PCDH19-HA-FLAG (Protocadherin 19, endogenous in Pcdh19-HA-FLAG mice) (mouse (endogenous in mouse brain)); assay: affinity purification with mass spectrometry; Experiment 2, embryonic: PCDH19-HA-FLAG precipitated with anti-FLAG M2 affinity gel from E17.5-18.5 mouse cortex and hippocampus lysate, control mouse IgG affinity gel; IP Buffer, overnight 4 °C; LC-MS/MS
[3] = target: T1, PCDH19-HA-FLAG (Protocadherin 19, endogenous in Pcdh19-HA-FLAG mice) (mouse (endogenous in mouse brain)); assay: affinity purification with mass spectrometry; Experiment 1: PCDH19-HA-FLAG precipitated with anti-FLAG M2 affinity gel from E18.5 mouse cortex lysate, control untagged mice; IP Buffer (50 mM Tris-HCl pH 7.5, 150 mM NaCl, 0.2% Triton-X-100, 2 mM EDTA, 0.01% SDS), overnight 4 °C; LC-MS/MS

Substance | binding [1] | binding [2] | binding [3]
Eukaryotic translation initiation factor 4B (from UniProt Q8BGD9 1-611) | binds | binds | 
Zinc Finger C2HC-Type Containing 1A (from UniProt Q8BJH1 1-324) | binds |  | 
Ribosomal Protein L29 (from UniProt P47915 1-160) |  | binds | 
Collapsin Response Mediator Protein 1 (from UniProt P97427 1-572) | binds |  | 
Serine/Arginine Repetitive Matrix 2 (from UniProt Q8BTI8 1-2703) | binds |  | 
Capping Actin Protein Of Muscle Z-Line Subunit Beta (from UniProt P47757 1-277) |  | binds | 
Protein Phosphatase 1 Regulatory Subunit 9B (from UniProt Q6R891 1-817) |  | binds | 
Alpha II-spectrin (from UniProt P16546 1-2472) | binds | binds | 
Potassium Channel Tetramerization Domain Containing 5 (from UniProt Q8VC57 1-234) | binds | binds | 
Myosin Heavy Chain 14 (from UniProt Q6URW6 1-2000) | binds |  | 
Beta II-spectrin (from UniProt Q62261 1-2363) | binds |  | 
Microtubule Associated Protein 2 (from UniProt P20357 1-1828) | binds | binds | 
Myosin XVIIIA (from UniProt Q9JMH9 1-2050) | binds | binds | 
TRIO and F-actin Binding Protein (from UniProt Q99KW3 1-2014) |  | binds | 
Capping Actin Protein Of Muscle Z-Line Subunit Alpha 2 (from UniProt P47754 1-286) | binds | binds | 

Continued, values first:

binding [1] | binding [2] | binding [3] | Substance
 |  | binds | Microtubule-associated protein 1A (from UniProt Q9QYR6 1-2776)
binds |  |  | ATP synthase F1 subunit alpha (from UniProt Q03265 44-553)
binds |  |  | Dihydropyrimidinase Like 3 (from UniProt Q62188 1-570)
binds |  |  | Actinin Alpha 1 (from UniProt Q7TPR4 1-892)
binds | binds |  | Microtubule Associated Protein 1B (from UniProt P14873 1-2464)
binds |  |  | Protein Phosphatase 1 Regulatory Subunit 9A (mouse (endogenous in mouse brain))
binds |  |  | Janus Kinase 1 (from UniProt P52332 1-1153)
 | binds |  | Ankyrin 2 (from UniProt Q8C8R3 1-3898)
 | binds |  | LIM Domain And Actin Binding 1 (from UniProt Q9ERG0 1-753)
